In publication PMC6219760 one finds binding data, which are given here for 3 molecules.

Experiment [1] concerns the target T1, Buc-GFP, in vitro translated (wt Buc) (zebrafish) (UniProt H0WFA5).
T1 sequence: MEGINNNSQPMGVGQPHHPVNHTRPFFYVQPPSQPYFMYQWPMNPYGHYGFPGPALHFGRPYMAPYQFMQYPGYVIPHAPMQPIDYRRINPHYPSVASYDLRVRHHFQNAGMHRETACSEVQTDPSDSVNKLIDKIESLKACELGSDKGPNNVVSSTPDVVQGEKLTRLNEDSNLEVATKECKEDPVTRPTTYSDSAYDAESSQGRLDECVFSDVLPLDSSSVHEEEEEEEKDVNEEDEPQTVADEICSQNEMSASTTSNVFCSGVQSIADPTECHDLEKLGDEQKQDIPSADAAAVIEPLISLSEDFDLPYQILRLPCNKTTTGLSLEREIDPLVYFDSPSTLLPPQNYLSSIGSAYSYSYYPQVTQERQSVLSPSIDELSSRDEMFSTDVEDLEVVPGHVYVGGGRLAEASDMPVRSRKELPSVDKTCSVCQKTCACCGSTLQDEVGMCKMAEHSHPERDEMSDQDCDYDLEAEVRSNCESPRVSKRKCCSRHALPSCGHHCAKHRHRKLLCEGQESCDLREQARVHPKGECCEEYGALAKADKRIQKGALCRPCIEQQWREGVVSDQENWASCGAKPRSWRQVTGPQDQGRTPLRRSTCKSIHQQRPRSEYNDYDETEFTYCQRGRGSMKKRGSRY
Kind of experiment: pull-down; in vitro translated proteins, RNase treatment prior to GFP pulldown, Western blot.

For experiment [2], the target named is T1, Buc-GFP, in vitro translated (wt Buc) (zebrafish). Kind of experiment: pull-down; in vitro translated proteins diluted in YSS buffer, GFP fusions held on GFP Trap beads, Western blot.
Experiment [3] addresses T2, Buc^p106-GFP (1-601), in vitro translated (zebrafish) (UniProt H0WFA5).
T2 sequence: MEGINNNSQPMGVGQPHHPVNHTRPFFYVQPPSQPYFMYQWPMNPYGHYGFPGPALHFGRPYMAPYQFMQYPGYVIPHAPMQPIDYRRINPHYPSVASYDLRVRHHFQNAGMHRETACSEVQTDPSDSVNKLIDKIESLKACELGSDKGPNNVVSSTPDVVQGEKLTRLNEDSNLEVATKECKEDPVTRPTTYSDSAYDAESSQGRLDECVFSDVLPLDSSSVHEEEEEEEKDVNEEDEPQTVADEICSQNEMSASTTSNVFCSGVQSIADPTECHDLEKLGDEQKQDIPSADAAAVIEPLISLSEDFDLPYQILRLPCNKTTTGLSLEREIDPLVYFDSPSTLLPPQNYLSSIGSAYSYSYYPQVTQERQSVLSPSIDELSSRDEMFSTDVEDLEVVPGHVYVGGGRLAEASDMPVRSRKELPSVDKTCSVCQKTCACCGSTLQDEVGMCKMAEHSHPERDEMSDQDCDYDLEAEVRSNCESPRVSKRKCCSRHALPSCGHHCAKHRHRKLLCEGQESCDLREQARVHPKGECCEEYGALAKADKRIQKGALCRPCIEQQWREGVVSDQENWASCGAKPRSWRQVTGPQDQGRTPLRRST
The experiment is described as above.

For experiment [4], the target named is T3, Buc^p43-GFP (1-361), in vitro translated (zebrafish) (UniProt H0WFA5).
T3 sequence: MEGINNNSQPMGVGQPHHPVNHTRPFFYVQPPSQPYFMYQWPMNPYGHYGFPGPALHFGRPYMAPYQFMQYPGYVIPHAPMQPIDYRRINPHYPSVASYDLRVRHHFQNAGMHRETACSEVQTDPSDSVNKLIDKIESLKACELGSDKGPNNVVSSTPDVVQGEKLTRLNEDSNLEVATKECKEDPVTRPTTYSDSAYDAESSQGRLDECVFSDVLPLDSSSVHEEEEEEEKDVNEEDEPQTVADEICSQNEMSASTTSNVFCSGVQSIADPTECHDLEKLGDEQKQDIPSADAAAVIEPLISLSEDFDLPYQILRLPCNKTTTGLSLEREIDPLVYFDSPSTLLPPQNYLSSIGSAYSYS
The experiment is described as above.

Experiment [5] has as its target T4, Buc-GFP (Bucky ball fused to eGFP), from transgenic zebrafish (zebrafish) (UniProt H0WFA5).
T4 sequence: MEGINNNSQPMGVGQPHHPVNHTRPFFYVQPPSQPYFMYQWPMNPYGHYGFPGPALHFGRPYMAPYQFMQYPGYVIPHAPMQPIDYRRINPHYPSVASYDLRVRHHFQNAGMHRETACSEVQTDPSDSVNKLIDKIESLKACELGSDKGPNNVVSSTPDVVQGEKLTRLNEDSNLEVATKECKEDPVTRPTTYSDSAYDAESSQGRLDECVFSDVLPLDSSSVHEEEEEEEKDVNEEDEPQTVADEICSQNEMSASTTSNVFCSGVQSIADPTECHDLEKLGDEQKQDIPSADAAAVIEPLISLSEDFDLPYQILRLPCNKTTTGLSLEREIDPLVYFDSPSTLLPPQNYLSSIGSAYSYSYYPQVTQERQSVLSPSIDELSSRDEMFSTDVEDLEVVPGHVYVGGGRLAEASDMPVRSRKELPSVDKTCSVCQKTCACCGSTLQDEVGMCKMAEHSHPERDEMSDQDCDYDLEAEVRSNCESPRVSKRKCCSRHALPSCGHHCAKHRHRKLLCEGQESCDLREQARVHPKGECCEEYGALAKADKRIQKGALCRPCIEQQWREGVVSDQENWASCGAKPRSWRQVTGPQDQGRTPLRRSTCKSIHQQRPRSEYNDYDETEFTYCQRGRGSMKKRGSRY
Kind of experiment: co-IP; GFP-Trap immunoprecipitation from extracts of 3 hpf Buc-GFP or H2A-GFP transgenic zebrafish embryos, blotted with GFP and Vasa antibodies.

Experiment [6] addresses T5, Buc-VC (Buc fused to the C-terminal fragment of split Venus) (zebrafish) (UniProt H0WFA5).
T5 sequence: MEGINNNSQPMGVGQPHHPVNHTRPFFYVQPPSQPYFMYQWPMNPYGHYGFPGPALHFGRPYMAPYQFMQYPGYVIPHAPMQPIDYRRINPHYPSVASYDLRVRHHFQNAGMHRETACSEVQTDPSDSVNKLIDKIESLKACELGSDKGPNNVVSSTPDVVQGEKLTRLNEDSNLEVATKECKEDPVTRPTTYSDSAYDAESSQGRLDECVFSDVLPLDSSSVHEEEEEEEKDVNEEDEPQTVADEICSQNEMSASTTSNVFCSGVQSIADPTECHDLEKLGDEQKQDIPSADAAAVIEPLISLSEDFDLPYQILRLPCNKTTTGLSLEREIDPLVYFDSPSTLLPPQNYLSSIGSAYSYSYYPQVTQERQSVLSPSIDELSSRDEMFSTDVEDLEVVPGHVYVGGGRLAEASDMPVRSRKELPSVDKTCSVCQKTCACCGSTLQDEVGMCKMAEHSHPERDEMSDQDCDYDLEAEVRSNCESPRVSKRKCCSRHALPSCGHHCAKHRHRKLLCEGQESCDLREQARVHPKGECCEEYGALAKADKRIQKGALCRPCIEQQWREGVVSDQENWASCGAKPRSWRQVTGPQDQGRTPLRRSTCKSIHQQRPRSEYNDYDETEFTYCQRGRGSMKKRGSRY
In words: split reporter; BiFC with split Venus (VN, VC); mRNAs (200 pg each) injected into one-cell zebrafish embryos, fluorescence imaged at 3 hpf.

Results are given in words; binding and its absence hold for the method and conditions named. In cells and extracts the contact can be indirect. Some binding calls cover weakened binding; strength is not graded here. Tags and fused reporters may be left off the sequences shown.

B1: zebrafish Vasa, in vitro translated (protein, UniProt O42107 1-716)
chain: MDDWEEDQSPVVSCSSGFGLGSNGSDGGFKSFYTGGAGNDKSNSEGTEGSSWKMTGDSFRGRGGRGGSRGGRGGFSGFKSEIDENGSDGGWNGGESRGRGRGGFRGGFRSGSRDENDENRNDDGWKGGESRGRGRGGFGGSFRGGFRDGGNEDTGRRGFGRENNENGNDEGGEGRGRGRGGFRGGFRDGGGDESGKRGFGRGGFRGRNEEVFSKVTTADKLDQEGSENAGPKVVYVPPPPPEEESSIFSHYATGINFDKYDDILVDVSGSNPPKAIMTFEEAGLCDSLSKNVSKSGYVKPTPVQKHGIPIISAGRDLMACAQTGSGKTAAFLLPILQRFMTDGVAASKFSEIQEPEAIIVAPTRELINQIYLEARKFAYGTCVRPVVVYGGINTGYTIREVLKGCNVLCATPGRLHDLIGRGKIGLSKVRYLVLDEADRMLDMGFEPEMRKLVASPGMPSKEERQTLMFSATYPEDIQRMAADFLKVDYIFLAVGVVGGACSDVEQTVVQVDQYSKRDQLLELLRATGNERTMVFVETKRSADFIATFLCQEKISTTSIHGDREQREREKALSDFRLGHCPVLVATSVAARGLDIEQVQHVVNFDMPSSIDEYVHRIGRTGRCGNTGRAVSFFNPESDTPLARSLVKVLSGAQQVVPKWLEEVAFSAHGTTGFNPRGKVFASTDSRKGGSFKSDEPPPSQTSAPSAAAAADDEEWE
With B1, the binding result in experiment [1], in experiment [2], in experiment [3] and in experiment [4] was “binds” in each case.

B2: Vasa (Ddx4), endogenous in zebrafish embryos (protein, UniProt O42107 1-716)
chain: MDDWEEDQSPVVSCSSGFGLGSNGSDGGFKSFYTGGAGNDKSNSEGTEGSSWKMTGDSFRGRGGRGGSRGGRGGFSGFKSEIDENGSDGGWNGGESRGRGRGGFRGGFRSGSRDENDENRNDDGWKGGESRGRGRGGFGGSFRGGFRDGGNEDTGRRGFGRENNENGNDEGGEGRGRGRGGFRGGFRDGGGDESGKRGFGRGGFRGRNEEVFSKVTTADKLDQEGSENAGPKVVYVPPPPPEEESSIFSHYATGINFDKYDDILVDVSGSNPPKAIMTFEEAGLCDSLSKNVSKSGYVKPTPVQKHGIPIISAGRDLMACAQTGSGKTAAFLLPILQRFMTDGVAASKFSEIQEPEAIIVAPTRELINQIYLEARKFAYGTCVRPVVVYGGINTGYTIREVLKGCNVLCATPGRLHDLIGRGKIGLSKVRYLVLDEADRMLDMGFEPEMRKLVASPGMPSKEERQTLMFSATYPEDIQRMAADFLKVDYIFLAVGVVGGACSDVEQTVVQVDQYSKRDQLLELLRATGNERTMVFVETKRSADFIATFLCQEKISTTSIHGDREQREREKALSDFRLGHCPVLVATSVAARGLDIEQVQHVVNFDMPSSIDEYVHRIGRTGRCGNTGRAVSFFNPESDTPLARSLVKVLSGAQQVVPKWLEEVAFSAHGTTGFNPRGKVFASTDSRKGGSFKSDEPPPSQTSAPSAAAAADDEEWE
As for B2, the binding result in experiment [5] was “binds”.

B3: Vasa-VN (Vasa fused to the N-terminal fragment of split Venus) (protein, UniProt O42107 1-716)
chain: MDDWEEDQSPVVSCSSGFGLGSNGSDGGFKSFYTGGAGNDKSNSEGTEGSSWKMTGDSFRGRGGRGGSRGGRGGFSGFKSEIDENGSDGGWNGGESRGRGRGGFRGGFRSGSRDENDENRNDDGWKGGESRGRGRGGFGGSFRGGFRDGGNEDTGRRGFGRENNENGNDEGGEGRGRGRGGFRGGFRDGGGDESGKRGFGRGGFRGRNEEVFSKVTTADKLDQEGSENAGPKVVYVPPPPPEEESSIFSHYATGINFDKYDDILVDVSGSNPPKAIMTFEEAGLCDSLSKNVSKSGYVKPTPVQKHGIPIISAGRDLMACAQTGSGKTAAFLLPILQRFMTDGVAASKFSEIQEPEAIIVAPTRELINQIYLEARKFAYGTCVRPVVVYGGINTGYTIREVLKGCNVLCATPGRLHDLIGRGKIGLSKVRYLVLDEADRMLDMGFEPEMRKLVASPGMPSKEERQTLMFSATYPEDIQRMAADFLKVDYIFLAVGVVGGACSDVEQTVVQVDQYSKRDQLLELLRATGNERTMVFVETKRSADFIATFLCQEKISTTSIHGDREQREREKALSDFRLGHCPVLVATSVAARGLDIEQVQHVVNFDMPSSIDEYVHRIGRTGRCGNTGRAVSFFNPESDTPLARSLVKVLSGAQQVVPKWLEEVAFSAHGTTGFNPRGKVFASTDSRKGGSFKSDEPPPSQTSAPSAAAAADDEEWE
On to B3, for which the binding result in experiment [6] is “binds”.
